{"sequences": {"note": "Sequences of proteins named here, by UniProt entry; tags and fusion partners are left off. A change or cut given only in a name is not applied to a line headed by its entry.", "UniProt P20231": "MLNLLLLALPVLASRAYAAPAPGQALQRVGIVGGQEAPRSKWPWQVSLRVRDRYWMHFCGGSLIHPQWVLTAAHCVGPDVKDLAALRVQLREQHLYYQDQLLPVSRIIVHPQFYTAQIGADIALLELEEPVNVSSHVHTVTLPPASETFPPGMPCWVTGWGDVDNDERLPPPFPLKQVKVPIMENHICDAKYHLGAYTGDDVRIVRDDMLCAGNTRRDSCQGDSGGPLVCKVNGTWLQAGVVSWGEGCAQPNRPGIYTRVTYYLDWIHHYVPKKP"}, "source": "patent US20090130692A1", "biological_target": "human tryptase β-III (Human) (UniProt P20231)", "assay": "enzyme inhibition, Kiapp determination", "note": "Results are given in words; binding and its absence hold for the method and conditions named.", "data": [{"substance": "MCoEeTI-2R-10 (from UniProt P00648 48-157)", "values": [{"measurement": "binding", "value": "no binding (tested: at 0.5 µM protein concentration)"}]}]}
